These are yes or no findings as the source states them, for the method shown. In cells and extracts the contact can be indirect. These calls come from enrichment with a bait or labelling near it, and not all partners need be listed.
biological target: Tau (mouse (endogenous in Raw264.7)) (UniProt P10637); assay: affinity purification with mass spectrometry; control and Tau knockout Raw264.7 cells treated with or without 10 µM biotin-labelled dexamethasone for 30 min; lysate on streptavidin magnetic particles 2 h at 4 °C; eluted with 0.1 M glycine-HCl pH 2.5; mass spectrometry

Protein sequences, listed by entry. Tags and fused reporters are not part of them. Lines headed by an entry give the natural chain unless they say otherwise; changes in a name come on top.
UniProt P10637: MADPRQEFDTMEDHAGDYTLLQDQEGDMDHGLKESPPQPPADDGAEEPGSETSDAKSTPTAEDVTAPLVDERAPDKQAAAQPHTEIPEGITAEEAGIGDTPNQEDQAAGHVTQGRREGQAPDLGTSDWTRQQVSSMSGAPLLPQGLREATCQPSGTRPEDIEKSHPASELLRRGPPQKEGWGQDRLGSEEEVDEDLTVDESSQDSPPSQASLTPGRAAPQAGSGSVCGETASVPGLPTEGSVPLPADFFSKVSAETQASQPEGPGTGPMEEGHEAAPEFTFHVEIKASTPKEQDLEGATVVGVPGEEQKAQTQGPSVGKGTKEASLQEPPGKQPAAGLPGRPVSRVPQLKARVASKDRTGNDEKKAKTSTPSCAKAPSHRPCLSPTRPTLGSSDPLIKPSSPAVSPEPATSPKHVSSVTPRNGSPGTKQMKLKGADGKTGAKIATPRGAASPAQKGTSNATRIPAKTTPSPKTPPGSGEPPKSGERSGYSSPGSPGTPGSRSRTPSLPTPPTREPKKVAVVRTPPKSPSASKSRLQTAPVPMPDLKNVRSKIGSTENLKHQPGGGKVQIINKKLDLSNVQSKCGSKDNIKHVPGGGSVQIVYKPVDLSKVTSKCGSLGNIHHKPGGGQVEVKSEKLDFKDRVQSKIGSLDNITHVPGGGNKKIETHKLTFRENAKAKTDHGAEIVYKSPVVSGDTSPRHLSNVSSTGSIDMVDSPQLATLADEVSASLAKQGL
UniProt Q6PCN3: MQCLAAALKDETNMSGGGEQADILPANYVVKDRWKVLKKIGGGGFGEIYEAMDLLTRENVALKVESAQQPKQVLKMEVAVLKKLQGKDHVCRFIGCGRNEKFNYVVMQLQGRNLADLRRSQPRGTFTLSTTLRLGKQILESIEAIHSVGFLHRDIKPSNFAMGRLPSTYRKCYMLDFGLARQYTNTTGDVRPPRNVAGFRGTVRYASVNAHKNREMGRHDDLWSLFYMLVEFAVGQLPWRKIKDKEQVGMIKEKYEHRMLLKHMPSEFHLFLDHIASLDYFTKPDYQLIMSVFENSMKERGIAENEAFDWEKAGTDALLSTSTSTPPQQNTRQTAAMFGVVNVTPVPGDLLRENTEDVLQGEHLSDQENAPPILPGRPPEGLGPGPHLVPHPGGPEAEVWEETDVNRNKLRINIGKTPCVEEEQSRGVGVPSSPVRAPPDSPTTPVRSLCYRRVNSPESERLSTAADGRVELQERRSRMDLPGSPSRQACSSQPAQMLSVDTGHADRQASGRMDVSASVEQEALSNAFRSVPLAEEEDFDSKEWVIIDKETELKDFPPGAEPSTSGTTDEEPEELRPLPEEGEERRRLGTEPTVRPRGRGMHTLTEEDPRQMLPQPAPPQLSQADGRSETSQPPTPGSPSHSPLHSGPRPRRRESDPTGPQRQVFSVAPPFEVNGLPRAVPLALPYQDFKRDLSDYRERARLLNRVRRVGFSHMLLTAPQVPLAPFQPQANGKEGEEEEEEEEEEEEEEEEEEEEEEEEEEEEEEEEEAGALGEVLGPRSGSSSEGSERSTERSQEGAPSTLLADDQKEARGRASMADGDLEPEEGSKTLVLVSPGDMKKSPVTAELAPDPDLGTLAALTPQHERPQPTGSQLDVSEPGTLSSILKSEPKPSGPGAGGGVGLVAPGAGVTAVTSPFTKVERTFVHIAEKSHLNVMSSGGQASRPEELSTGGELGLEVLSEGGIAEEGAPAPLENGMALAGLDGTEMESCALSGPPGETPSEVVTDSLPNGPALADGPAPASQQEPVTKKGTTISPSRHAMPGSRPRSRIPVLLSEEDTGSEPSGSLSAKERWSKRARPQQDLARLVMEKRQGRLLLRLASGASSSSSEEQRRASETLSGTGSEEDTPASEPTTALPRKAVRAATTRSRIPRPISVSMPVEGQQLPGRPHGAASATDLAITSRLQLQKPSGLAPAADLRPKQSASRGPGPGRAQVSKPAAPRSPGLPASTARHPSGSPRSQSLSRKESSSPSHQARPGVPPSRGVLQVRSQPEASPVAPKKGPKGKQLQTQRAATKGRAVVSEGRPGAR

Molecule | binding
TTBK1 kinase (from UniProt Q6PCN3 1-1308) (enzyme) | binds
serine/threonine protein kinase TAO1 (enzyme, UniProt Q5F2E8 1-1001) MPSTNRAGSLKDPEIAELFFKEDPEKLFTDLREIGHGSFGAVYFARDVRTNEVVAIKKMSYSGKQSTEKWQDIIKEVKFLQRIKHPNSIEYKGCYLREHTAWLVMEYCLGSASDLLEVHKKPLQEVEIAAITHGALQGLAYLHSHTMIHRDIKAGNILLTEPGQVKLADFGSASMASPANSFVGTPYWMAPEVILAMDEGQYDGKVDVWSLGITCIELAERKPPLFNMNAMSALYHIAQNESPTLQSNEWSDYFRNFVDSCLQKIPQDRPTSEELLKHMFVLRERPETVLIDLIQRTKDAVRELDNLQYRKMKKLLFQEAHNGPAVEAQEEEEEQDHGVGRTGTVNSVGSNQSIPSMSISASSQSSSVNSLPDASDDKSELDMMEGDHTVMSNSSVIHLKPEEENYQEEGDPRTRASDPQSPPQVSRHKSHYRNREHFATIRTASLVTRQMQEHEQDSELREQMSGYKRMRRQHQKQLMTLENKLKAEMDEHRLRLDKDLETQRNNFAAEMEKLIKKHQAAMEKEAKVMANEEKKFQQHIQAQQKKELNSFLESQKREYKLRKEQLKEELNENQSTPKKEKQEWLSKQKENIQHFQAEEEANLLRRQRQYLELECRRFKRRMLLGRHNLEQDLVREELNKRQTQKDLEHAMLLRQHESMQELEFRHLNTIQKMRCELIRLQHQTELTNQLEYNKRRERELRRKHVMEVRQQPKSLKSKELQIKKQFQDTCKIQTRQYKALRNHLLETTPKSEHKAVLKRLKEEQTRKLAILAEQYDHSINEMLSTQALRLDEAQEAECQVLKMQLQQELELLNAYQSKIKMQAEAQHDRELRELEQRVSLRRALLEQKIEEEMLALQNERTERIRSLLERQAREIEAFDSESMRLGFSNMVLSNLSPEAFSHSYPGASSWSHNPTGGPGPHWGHPMGGTPQAWGHPMQGGPQPWGHPSGPMQGVPRGSSMGVRNSPQALRRTASGGRTEQGMSRSTSVTSQISNGSHMSYT | binds
serine/threonine protein kinase Nek9 (enzyme, UniProt Q8K1R7 1-984) MSVLGEYERHCDSINSDFGSESGGGGDSGPGPSAVPGPRAGGGAAEQEELHYIPIRVLGRGAFGEATLYRRTEDDSLVVWKEVDLTRLSEKERRDALNEIVILALLQHDNIIAYYNHFMDNTTLLIELEYCNGGNLYDKILRQKDKLFEEEMVVWYLFQIVSAVSCIHKAGILHRDIKTLNIFLTKANLIKLGDYGLAKKLNSEYSMAETLVGTPYYMSPELCQGVKYNFKSDIWAVGCVIFELLTLKRTFDATNPLNLCVKIVQGIRAMEVDSSQYSLELIQLVHACLDQDPEQRPAADALLDLPLLRTRRREMEEKVTLLNAPTKRPRSSTVTEAPIAVVTSRTSEVYVWGGGKSTPQKLDVIKSGCSARQVCAGNTHFAVVTVEKELYTWVNMQGGTKLHGQLGHGDKASYRQPKHVEKLQGKAIHQVSCGDDFTVCVTDEGQLYAFGSDYYGCMGVDKVSGPEVLEPMQLNFFLSNPVEQVSCGDNHVVVLTRNKEVYSWGCGEYGRLGLDSEEDYYTPQRVDVPKALIIVAVQCGCDGTFLLTQSGKVLACGLNEFNKLGLNQCMSGIINHEAYHEVPYTTSFTLAKQLSFYKIRTIAPGKTHTAAIDERGRLLTFGCNKCGQLGVGNYKKRLGINLLGGPLGGKQVIRVSCGDEFTIAATDDNHIFAWGNGGNGRLAMTPTERPHGSDICTSWPRPIFGSLHHVPDLSCRGWHTILIVEKVLNSKTIRSNSSGLSIGTVVQSSSPGGGIGGGGGGGGGGGGEEEDSQQESETPDPSGGFRGTMEADRGMEGLISPTEAVGNSCGASSSCPGWLRKELENAEFIPMPDSPAPLSAAFSQSEKDTLPYEELQGLKVASEVPPEPQRAAGAWPPRLDPAVPCVGKALTSAACACSALQVEVDRLQALVLKCLEEQQKLQQENLQMFTQLQKLNKKLEGGQQVGMHSRGTQTAKEEMEMDPKPDLDSESWCLLGTDSCRPSL | binds

Reference: PMC11701132, “Tau is a receptor with low affinity for glucocorticoids and is required for glucocorticoid-induced bone loss” (Cell Research, 2025)
